The values that follow come from the supplement of paper PMC10849652.

Chains of the proteins cited; added tags and fusions are not shown. Lines headed by an entry give the natural chain unless they say otherwise; changes in a name come on top.
UniProt Q9NVW2: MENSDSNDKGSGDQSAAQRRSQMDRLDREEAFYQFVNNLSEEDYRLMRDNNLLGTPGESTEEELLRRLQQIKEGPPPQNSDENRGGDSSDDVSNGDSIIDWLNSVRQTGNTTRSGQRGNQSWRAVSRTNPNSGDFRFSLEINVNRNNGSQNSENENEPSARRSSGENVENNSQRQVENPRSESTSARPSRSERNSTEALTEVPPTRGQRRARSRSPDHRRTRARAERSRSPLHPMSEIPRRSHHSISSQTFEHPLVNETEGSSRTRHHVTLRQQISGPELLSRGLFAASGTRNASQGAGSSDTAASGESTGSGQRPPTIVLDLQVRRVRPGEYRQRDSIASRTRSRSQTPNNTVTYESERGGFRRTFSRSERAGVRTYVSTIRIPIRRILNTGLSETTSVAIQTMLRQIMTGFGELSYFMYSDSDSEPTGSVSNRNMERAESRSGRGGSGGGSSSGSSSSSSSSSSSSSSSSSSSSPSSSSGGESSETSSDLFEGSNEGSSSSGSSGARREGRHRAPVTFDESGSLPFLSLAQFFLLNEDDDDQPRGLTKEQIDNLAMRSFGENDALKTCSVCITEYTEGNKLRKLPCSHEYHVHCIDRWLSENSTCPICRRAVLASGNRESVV
UniProt P48380: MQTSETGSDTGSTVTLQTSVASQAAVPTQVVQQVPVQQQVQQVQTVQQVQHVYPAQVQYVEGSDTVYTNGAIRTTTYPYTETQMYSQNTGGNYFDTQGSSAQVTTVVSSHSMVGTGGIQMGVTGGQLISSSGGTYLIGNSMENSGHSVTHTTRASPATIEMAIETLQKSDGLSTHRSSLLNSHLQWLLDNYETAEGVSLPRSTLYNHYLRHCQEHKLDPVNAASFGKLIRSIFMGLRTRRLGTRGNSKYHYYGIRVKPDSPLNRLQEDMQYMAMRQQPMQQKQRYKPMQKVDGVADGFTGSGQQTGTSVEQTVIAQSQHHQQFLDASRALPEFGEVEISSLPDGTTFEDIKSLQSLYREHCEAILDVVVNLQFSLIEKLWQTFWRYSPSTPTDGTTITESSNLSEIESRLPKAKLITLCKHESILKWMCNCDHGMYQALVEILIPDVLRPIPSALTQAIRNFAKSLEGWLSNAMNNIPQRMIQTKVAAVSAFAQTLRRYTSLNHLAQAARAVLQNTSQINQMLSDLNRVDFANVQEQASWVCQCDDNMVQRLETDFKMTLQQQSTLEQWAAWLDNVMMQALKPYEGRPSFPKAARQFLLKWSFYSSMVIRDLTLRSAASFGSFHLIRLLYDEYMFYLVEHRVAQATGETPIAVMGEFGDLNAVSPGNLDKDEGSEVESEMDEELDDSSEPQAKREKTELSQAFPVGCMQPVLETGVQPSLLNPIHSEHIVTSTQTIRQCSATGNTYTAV
UniProt Q8IYW5, whole entry, looked up: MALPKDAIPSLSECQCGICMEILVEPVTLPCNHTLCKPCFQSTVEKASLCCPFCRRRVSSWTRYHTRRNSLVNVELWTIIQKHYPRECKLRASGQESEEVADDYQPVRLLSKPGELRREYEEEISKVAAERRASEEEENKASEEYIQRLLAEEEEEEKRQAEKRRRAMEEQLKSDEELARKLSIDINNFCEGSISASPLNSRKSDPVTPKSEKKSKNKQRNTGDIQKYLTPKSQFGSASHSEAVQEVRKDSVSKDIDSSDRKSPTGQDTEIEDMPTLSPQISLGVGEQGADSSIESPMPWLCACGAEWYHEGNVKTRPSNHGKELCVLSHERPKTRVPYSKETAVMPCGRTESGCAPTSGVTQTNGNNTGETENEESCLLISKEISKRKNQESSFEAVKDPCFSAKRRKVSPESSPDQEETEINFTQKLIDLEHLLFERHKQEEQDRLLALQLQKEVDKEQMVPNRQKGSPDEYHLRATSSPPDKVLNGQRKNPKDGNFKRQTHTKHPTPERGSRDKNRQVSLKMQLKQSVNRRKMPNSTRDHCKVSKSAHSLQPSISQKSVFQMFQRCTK
UniProt Q5VTB9: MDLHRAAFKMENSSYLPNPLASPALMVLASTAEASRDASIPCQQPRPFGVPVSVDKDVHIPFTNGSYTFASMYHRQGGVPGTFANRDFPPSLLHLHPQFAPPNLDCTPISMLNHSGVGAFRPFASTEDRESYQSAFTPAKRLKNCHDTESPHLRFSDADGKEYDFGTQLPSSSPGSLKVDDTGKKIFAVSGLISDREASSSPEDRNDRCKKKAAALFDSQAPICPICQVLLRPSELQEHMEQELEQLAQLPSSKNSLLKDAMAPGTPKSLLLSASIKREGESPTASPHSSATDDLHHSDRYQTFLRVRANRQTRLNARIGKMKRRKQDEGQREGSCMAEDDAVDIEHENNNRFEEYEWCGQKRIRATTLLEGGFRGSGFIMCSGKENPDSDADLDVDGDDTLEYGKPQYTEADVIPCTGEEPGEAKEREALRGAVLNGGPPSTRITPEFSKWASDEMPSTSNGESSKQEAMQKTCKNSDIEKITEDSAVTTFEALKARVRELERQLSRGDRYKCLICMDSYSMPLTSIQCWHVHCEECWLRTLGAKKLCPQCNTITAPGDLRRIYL
UniProt Q6ZS17: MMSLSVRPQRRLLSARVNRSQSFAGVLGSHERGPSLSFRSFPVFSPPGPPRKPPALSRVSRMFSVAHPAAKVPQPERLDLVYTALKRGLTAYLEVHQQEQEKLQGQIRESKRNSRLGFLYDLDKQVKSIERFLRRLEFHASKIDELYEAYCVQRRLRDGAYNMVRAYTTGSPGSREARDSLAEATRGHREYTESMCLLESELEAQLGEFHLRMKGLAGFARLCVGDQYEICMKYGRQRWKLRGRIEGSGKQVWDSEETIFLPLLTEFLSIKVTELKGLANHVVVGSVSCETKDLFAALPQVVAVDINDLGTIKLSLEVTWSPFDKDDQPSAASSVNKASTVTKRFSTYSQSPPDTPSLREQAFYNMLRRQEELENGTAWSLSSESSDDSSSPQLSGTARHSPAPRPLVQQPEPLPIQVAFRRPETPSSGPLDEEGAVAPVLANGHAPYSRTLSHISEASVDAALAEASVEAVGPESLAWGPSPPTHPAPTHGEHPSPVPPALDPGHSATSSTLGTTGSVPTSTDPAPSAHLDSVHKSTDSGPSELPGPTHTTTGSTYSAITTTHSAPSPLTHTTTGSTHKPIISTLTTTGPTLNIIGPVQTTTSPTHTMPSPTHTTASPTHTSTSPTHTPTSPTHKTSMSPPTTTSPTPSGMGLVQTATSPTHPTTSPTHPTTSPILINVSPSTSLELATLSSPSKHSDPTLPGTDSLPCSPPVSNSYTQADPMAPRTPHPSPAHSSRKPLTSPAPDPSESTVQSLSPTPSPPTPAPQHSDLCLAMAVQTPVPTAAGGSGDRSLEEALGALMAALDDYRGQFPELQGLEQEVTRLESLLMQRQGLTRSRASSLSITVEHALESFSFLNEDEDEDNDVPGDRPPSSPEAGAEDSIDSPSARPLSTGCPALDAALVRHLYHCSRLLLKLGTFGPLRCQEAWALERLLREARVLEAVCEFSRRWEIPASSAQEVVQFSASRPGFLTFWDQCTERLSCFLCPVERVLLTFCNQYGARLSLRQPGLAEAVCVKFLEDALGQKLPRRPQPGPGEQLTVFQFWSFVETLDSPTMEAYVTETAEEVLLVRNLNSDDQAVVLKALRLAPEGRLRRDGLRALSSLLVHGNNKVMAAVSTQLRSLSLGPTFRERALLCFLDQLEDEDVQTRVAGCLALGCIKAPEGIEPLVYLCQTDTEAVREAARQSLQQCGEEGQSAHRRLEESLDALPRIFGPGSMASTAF
UniProt O43566: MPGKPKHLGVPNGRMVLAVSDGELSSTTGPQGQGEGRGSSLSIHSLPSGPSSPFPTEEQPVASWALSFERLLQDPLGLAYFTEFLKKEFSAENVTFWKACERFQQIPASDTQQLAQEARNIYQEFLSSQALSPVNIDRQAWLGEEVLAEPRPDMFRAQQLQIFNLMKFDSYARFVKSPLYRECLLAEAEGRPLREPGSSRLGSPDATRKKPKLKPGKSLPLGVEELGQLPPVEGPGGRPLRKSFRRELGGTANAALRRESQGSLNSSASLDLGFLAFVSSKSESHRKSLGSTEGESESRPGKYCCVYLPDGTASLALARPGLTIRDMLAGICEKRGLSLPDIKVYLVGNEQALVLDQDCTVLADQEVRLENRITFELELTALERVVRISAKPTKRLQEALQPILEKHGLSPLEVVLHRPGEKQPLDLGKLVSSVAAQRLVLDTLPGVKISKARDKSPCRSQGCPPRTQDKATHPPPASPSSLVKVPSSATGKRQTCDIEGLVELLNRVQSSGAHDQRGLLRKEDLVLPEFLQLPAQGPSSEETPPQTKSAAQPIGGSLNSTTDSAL
UniProt Q8NDN9: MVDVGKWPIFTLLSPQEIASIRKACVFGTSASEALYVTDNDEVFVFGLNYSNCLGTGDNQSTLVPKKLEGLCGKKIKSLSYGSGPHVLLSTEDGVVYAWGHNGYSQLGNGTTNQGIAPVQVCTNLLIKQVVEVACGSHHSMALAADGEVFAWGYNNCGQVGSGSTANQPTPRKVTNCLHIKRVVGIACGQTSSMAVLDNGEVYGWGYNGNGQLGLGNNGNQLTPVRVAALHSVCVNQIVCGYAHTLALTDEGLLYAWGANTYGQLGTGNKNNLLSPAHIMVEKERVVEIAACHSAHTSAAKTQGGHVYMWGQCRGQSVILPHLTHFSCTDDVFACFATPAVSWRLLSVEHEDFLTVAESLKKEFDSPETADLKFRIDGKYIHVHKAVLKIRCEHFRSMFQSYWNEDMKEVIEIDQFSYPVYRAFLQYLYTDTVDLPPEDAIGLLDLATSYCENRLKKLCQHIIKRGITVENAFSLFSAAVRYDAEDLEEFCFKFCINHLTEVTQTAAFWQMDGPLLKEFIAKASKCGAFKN
UniProt Q969X0: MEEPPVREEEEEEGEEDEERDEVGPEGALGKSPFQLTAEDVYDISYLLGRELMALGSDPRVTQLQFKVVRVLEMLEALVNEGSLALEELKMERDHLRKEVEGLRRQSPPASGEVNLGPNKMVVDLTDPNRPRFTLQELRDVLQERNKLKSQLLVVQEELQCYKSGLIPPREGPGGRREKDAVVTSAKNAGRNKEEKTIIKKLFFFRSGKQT
UniProt Q9P260: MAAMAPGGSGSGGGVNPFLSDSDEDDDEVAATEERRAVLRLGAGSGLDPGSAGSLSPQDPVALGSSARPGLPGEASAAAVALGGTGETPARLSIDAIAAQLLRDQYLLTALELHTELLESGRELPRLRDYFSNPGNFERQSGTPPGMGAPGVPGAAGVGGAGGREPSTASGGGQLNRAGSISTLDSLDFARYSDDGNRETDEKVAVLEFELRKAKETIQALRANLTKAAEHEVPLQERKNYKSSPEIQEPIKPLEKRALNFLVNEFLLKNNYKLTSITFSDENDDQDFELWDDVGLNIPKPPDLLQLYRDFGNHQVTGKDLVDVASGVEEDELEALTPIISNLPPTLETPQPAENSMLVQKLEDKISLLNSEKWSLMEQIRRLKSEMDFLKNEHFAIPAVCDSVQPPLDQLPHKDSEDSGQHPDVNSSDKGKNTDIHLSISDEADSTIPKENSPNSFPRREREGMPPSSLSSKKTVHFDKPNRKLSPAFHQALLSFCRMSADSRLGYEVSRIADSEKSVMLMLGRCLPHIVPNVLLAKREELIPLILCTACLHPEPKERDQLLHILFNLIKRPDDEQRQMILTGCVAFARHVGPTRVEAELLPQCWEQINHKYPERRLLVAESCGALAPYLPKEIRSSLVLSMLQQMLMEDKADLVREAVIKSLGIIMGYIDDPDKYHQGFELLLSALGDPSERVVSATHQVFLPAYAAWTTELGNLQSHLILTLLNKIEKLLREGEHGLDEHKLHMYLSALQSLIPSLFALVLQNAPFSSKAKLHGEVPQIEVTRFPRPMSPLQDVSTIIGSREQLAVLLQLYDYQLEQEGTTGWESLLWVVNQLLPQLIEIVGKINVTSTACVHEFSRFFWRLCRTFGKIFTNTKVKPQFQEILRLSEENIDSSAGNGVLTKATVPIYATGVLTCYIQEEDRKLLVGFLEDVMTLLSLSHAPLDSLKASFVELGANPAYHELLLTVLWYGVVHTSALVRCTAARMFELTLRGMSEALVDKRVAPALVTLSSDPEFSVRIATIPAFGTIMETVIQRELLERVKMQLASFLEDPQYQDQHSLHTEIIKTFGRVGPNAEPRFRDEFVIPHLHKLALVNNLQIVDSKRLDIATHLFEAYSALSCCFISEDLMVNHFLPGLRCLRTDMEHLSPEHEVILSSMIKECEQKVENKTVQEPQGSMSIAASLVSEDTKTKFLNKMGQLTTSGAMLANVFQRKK
UniProt O14593: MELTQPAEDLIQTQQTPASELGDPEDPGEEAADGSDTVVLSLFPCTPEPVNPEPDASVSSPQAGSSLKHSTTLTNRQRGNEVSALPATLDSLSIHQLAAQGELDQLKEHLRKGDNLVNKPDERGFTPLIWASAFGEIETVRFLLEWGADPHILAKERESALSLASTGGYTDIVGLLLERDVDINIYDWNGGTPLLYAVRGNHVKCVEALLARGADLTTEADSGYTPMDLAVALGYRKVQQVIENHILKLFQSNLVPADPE

This is one part of the list.

Compound in the first assay: CC1=CC=C(C=C1)SC2=C3C=C(SC3=CN=C2)C(=O)N
The assay can be described thus: log2 fold change, soluble protein after heating vs DMSO (PISA); higher = thermal stabilisation; K562 cells, 10 uM, 30 min; active = over 0.2 and 3.5 SD of the protein, either way, in both replicates (recomputed). The gist of the method:
(§1)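 K562 cells at 2×10^6 cells/mL were given 10 μM compound for 30 min. Aliquots then went through 3 min of heating across 48°C-58°C, were pooled, and were extracted in PBS with 0.5% NP-40 at 4°C, and the supernatant after 21,000xg for 90 min was quantified by TMTpro 16plex LC-MS/MS with channel sums equalised. Thermal stability relative to control samples, from duplicates, is given as log2 fold change.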
Regarding RNF169 (UniProt Q8NCN4), the log2 fold change is inactive: 0.034. Regarding RHOXF2B (UniProt P0C7M4), the log2 fold change is inactive: -0.153. On to RLIM (UniProt Q9NVW2), for which the log2 fold change was inactive: -0.024. Regarding RBM6 (UniProt P78332), the log2 fold change is inactive: -0.056. As to RNF185 (UniProt Q96GF1), the log2 fold change was inactive: -0.074. On to RBM7 (UniProt Q9Y580), for which the log2 fold change is inactive: 0.018.

As for RGN (UniProt Q15493), the log2 fold change is inactive: 0.17. Still for that read-out and setting: under RICTOR isoform 3 (UniProt Q6R327) stands inactive: 0.074; under RFX3 (UniProt P48380), inactive: -0.144.

Regarding RFWD3 (UniProt Q6PCD5), the log2 fold change was inactive: -0.084. As to RMI2 (UniProt Q96E14), the log2 fold change was inactive: -0.113. For the target RNF168 (UniProt Q8IYW5), the log2 fold change is inactive: 0.111. For the target RCE1 (UniProt Q9Y256), the log2 fold change was inactive: 0.02. Still for that read-out and setting: in the case of RNF220 isoform 3 (UniProt Q5VTB9) it was inactive: 0.385; in that of RC3H2 (UniProt Q9HBD1), inactive: -0.052. For RNF138 (UniProt Q8WVD3), the log2 fold change was inactive: 0.138. With RNF166 (UniProt Q96A37), the log2 fold change is inactive: 0.071. Regarding RIF1 (UniProt Q5UIP0), the log2 fold change was inactive: -0.021.

Compound in the next assay: CC1=NC(=CC=C1)C2=C(N=C(N2)C(C)(C)C)C3=CC4=NC=CN=C4C=C3
The description is as above. In a few lines: as §1
With RIC8B isoform 1 (UniProt Q9NVN3), the log2 fold change is inactive: -0.005. As for RBM6 (UniProt P78332), the log2 fold change was inactive: 0.092. With RIPOR1 isoform 4 (UniProt Q6ZS17), the log2 fold change was inactive: -0.024.

On to RIT1 isoform 3 (UniProt Q92963), for which the log2 fold change is inactive: 0.08. On to RNF111 isoform 3 (UniProt Q6ZNA4), for which the log2 fold change was inactive: 0.041. As to RMDN2 isoform 2 (UniProt Q96LZ7), the log2 fold change is inactive: -0.127. Same read-out and setting: in the case of RILPL1 (UniProt Q5EBL4) it was inactive: -0.073; in that of RNF11 (UniProt Q9Y3C5), inactive: 0.209.

Compound in the next assay: CCCCN(Cc1ccc(C(=O)NO)cc1)C(=O)Nc1ccccc1 [Nexturastat A]
The assay is described as above. In a few lines: as §1
For the target RIC8B isoform 1 (UniProt Q9NVN3), the log2 fold change is inactive: -0.28.

RGS14 (UniProt O43566): the log2 fold change is inactive: 0.1. Regarding RIPOR1 isoform 4 (UniProt Q6ZS17), the log2 fold change is inactive: 0.066. Take RIT1 isoform 3 (UniProt Q92963): the log2 fold change is inactive: -0.125. For the target RCBTB1 (UniProt Q8NDN9), the log2 fold change was inactive: 0.023.

On to RILPL2 (UniProt Q969X0), for which the log2 fold change was inactive: -0.035. Consider RBM7 (UniProt Q9Y580), for which the log2 fold change was inactive: 0.154.

Take RICTOR isoform 3 (UniProt Q6R327): the log2 fold change is inactive: 0.25. For RELCH isoform 2 (UniProt Q9P260), the log2 fold change is inactive: -0.042.

In the case of RFWD3 (UniProt Q6PCD5), the log2 fold change was inactive: 0.044. For RILPL1 (UniProt Q5EBL4), the log2 fold change is inactive: 0.134. As to RCE1 (UniProt Q9Y256), the log2 fold change is inactive: -0.272. RFXANK (UniProt O14593): the log2 fold change is inactive: 0.47. With RGP1 (UniProt Q92546), the log2 fold change is inactive: -0.034. RC3H2 (UniProt Q9HBD1): the log2 fold change is inactive: 0.053.

With RNF138 (UniProt Q8WVD3), the log2 fold change was inactive: -0.082.

As for RCL1 (UniProt Q5VZU2), the log2 fold change was inactive: 0.314. In the case of RIF1 (UniProt Q5UIP0), the log2 fold change was inactive: 0.006.
